Measurements published in PubChem BioAssay AID192 (DTP/NCI, 2004).
The list is a part of this screen's results and no random one: it is rich in T/C values a quarter to a half above the control, in often repeated tests (any T/C) and in doses without a T/C. Further doses and runs are listed elsewhere. T/C: endpoint of the treated group in % of that of the vehicle group. Some doses have a count of surviving animals in place of a T/C: the source holds a T/C of zero for them, seemingly a mark for toxic or unscored doses. Some doses without a T/C left all or most animals alive at the check, yet need not have been tolerated: survival well below the control is almost never listed, so the zero probably covers shortened survival too. Survivors were counted at the toxicity check, usually on the fifth day, unless a day is given; later deaths do not show. Schedules are NCI's codes, taken here to give the interval after Q, in days (D) or hours (H), and the number of doses after X. Some doses were run more than once; the values are given in rising order. Where survival is the endpoint, the PubChem record calls one and a half times the control and up active, and a quarter to a half above the control has no call in these data; cut-offs in other NCI protocols can differ.

System: BDF1 mice, B16 melanoma ip, median survival T/C
Experiment: NCI In Vivo Anticancer Drug Screen. Data for tumor model B16 Melanoma (intraperitoneal) in B6D2F1 (BDF1) mice
Conditions: T/C endpoint: median survival time, higher T/C = longer survival
Outline: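 Tumor-bearing mice received test compound or vehicle. Survival or tumor size was then measured in both groups. The treated-group figure was divided by the control-group figure.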

[1] = dose: 12.5 mg/kg/injection, schedule: Q01DX009 (ip), vehicle: saline with Tween-80
[2] = dose: 25.0 mg/kg/injection, schedule: Q01DX009 (ip), vehicle: saline with Tween-80
[3] = dose: 200.0 mg/kg/injection, schedule: Q01DX009 (ip), vehicle: Klucel (hydroxypropylcellulose) (HPC)
[4] = dose: 400.0 mg/kg/injection, schedule: Q01DX009 (ip), vehicle: Klucel (hydroxypropylcellulose) (HPC)
[5] = dose: 100.0 mg/kg/injection, schedule: Q01DX009 (ip), vehicle: saline
[6] = dose: 400.0 mg/kg/injection, schedule: Q04DX003 (ip), vehicle: Klucel (hydroxypropylcellulose) (HPC)
[7] = dose: 50.0 mg/kg/injection, schedule: Q01DX009 (ip), vehicle: saline
[8] = dose: 200.0 mg/kg/injection, schedule: Q01DX009 (ip), vehicle: saline with Tween-80
[9] = dose: 50.0 mg/kg/injection, schedule: Q01DX009 (ip), vehicle: Klucel (hydroxypropylcellulose) (HPC)
[10] = dose: 100.0 mg/kg/injection, schedule: Q01DX009 (ip), vehicle: Klucel (hydroxypropylcellulose) (HPC)
[11] = dose: 400.0 mg/kg/injection, schedule: Q01DX009 (ip), vehicle: saline with Tween-80

Cc1nc2c(O)ccc(O)c2nc1C
survivor count [1]: 10 of 10 | survivor count [2]: 10 of 10

CC(C)(C)C1CCCCC1
survivor count [3]: 10 of 10 | survivor count [4]: 9 of 10

CC1C(=O)OCC2=CCN3CCC(OC(=O)C(C)C1(C)O)C23 (stereo unspecified)
T/C [5]: 130 % of control

O=C(CCl)N1CCC2(CC1)SSC1(CCN(C(=O)CCl)CC1)S2
survivor count (dose: 50.0 mg/kg/injection, schedule: Q01DX009 (ip), vehicle: saline with Tween-80): 10 of 10

O=c1[nH]c(=O)n(C2CC(O)C(CO)O2)cc1C(F)(F)F (stereo unspecified)
survivor count (dose: 40.0 mg/kg/injection, schedule: Q01DX009 (ip), vehicle: saline): 0 of 6 | survivor count (dose: 80.0 mg/kg/injection, schedule: Q01DX009 (ip), vehicle: saline): 0 of 6 | survivor count [5]: 10 of 10 | survivor count (dose: 160.0 mg/kg/injection, schedule: Q01DX009 (ip), vehicle: saline): 0 of 6 | survivor count (dose: 200.0 mg/kg/injection, schedule: Q01DX009 (ip), vehicle: saline): 10 of 10 | survivor count (dose: 400.0 mg/kg/injection, schedule: Q01DX009 (ip), vehicle: saline): 10 of 10

O=C(c1ccccc1Cl)N(Cc1ccccc1)c1ccccc1
survivor count [3]: 10 of 10 | survivor count [4]: 4 of 10

COC(=O)C1CCC(C(=O)O)CC1 (stereo unspecified)
survivor count [6]: 9 of 10

[Cl][Hg][CH]1CCC2OC1CC[CH]2[Hg][Cl] (stereo unspecified)
survivor count [1]: 8 of 10 | survivor count [2]: 2 of 10

OCCN1CCN(CCCN2c3ccccc3Sc3cccnc32)CC1
survivor count (dose: 4.68 mg/kg/injection, schedule: Q01DX009 (ip), vehicle: saline): 7 of 10 | T/C [7]: 127 % of control | survivor count [5]: 4 of 10

CC(C)(C)OC(=O)NC(Cc1ccc(OCc2c(Cl)cccc2Cl)cc1)C(=O)O (stereo unspecified)
survivor count [8]: 9 of 10

CCOc1ccc(NC(=O)Nc2cccc3ccccc23)cc1
survivor count (dose: 12.5 mg/kg/injection, schedule: Q01DX009 (ip), vehicle: Klucel (hydroxypropylcellulose) (HPC)): 9 of 10 | survivor count (dose: 25.0 mg/kg/injection, schedule: Q01DX009 (ip), vehicle: Klucel (hydroxypropylcellulose) (HPC)): 8 of 10 | survivor count [9]: 10 of 10 | survivor count [10]: 10 of 10 | survivor count [3]: 10 of 10

NCCc1c[nH]c2ccccc12
survivor count (dose: 400.0 mg/kg/injection, schedule: Q04DX003 (ip), vehicle: saline): 4 of 10

O=C1C(=O)c2cccc3cccc1c23
survivor count [7]: 10 of 10 | survivor count (dose: 100.0 mg/kg/injection, schedule: Q01DX009 (ip), vehicle: saline with Tween-80): 10 of 10 | survivor count [8]: 9 of 10 | survivor count [11]: 10 of 10

COC1=C(OC)C(=O)C(SC/C=C(\C)CCCC(C)CCCC(C)CCCC(C)C)=CC1=O (stereo unspecified)
survivor count [8]: 10 of 10

O=C(Nc1ccccc1C(F)(F)F)Nc1cccc2ccccc12
survivor count [4]: 6 of 6

COC(=O)C1Oc2ccc(Cl)cc2Cc2cc(Cl)ccc2O1
survivor count (dose: 20.0 mg/kg/injection, schedule: Q01DX009 (ip), vehicle: Klucel (hydroxypropylcellulose) (HPC)): 9 of 10 | survivor count (dose: 40.0 mg/kg/injection, schedule: Q01DX009 (ip), vehicle: Klucel (hydroxypropylcellulose) (HPC)): 9 of 10 | survivor count (dose: 75.0 mg/kg/injection, schedule: Q01DX009 (ip), vehicle: Klucel (hydroxypropylcellulose) (HPC)): 8 of 10 | survivor count (dose: 150.0 mg/kg/injection, schedule: Q01DX009 (ip), vehicle: Klucel (hydroxypropylcellulose) (HPC)): 6 of 10 | survivor count (dose: 300.0 mg/kg/injection, schedule: Q01DX009 (ip), vehicle: Klucel (hydroxypropylcellulose) (HPC)): 5 of 10

Cc1cc2c3ccccc3ccc2[n+]2ccccc12
survivor count (dose: 25.0 mg/kg/injection, schedule: Q01DX009 (ip), vehicle: saline): 5 of 10 | survivor count [7]: 1 of 10

CC(=O)OCC1OC(n2cc(CBr)nn2)C(OC(C)=O)C(OC(C)=O)C1OC(C)=O (stereo unspecified)
survivor count [10]: 8 of 10

NC(CS/C(Cl)=C/Cl)C(=O)O (stereo unspecified)
survivor count (dose: 40.0 mg/kg/injection, schedule: Q01DX009 (ip), vehicle: other): 5 of 10

O=c1ccc(N=Nc2ccccc2)ccc1Cl
survivor count (dose: 2.5 mg/kg/injection, schedule: Q01DX009 (ip), vehicle: Klucel (hydroxypropylcellulose) (HPC)): 10 of 10 | survivor count (dose: 5.0 mg/kg/injection, schedule: Q01DX009 (ip), vehicle: Klucel (hydroxypropylcellulose) (HPC)): 10 of 10 | survivor count (dose: 10.0 mg/kg/injection, schedule: Q01DX009 (ip), vehicle: Klucel (hydroxypropylcellulose) (HPC)): 9 of 9

CC1(CC(C)(C)C2CCCCC2)OCCO1
survivor count (dose: 100.0 mg/kg/injection, schedule: Q01DX009 (ip), vehicle: other): 10 of 10

CCCCCC(O)C1C(=O)OC(C)C(O)/C=C/C=C/C=C/C=C\C=C(\C)C(O)CC(O)CC(O)CC(O)CC(O)CC(O)CC1O (stereo unspecified)
survivor count (dose: 20.0 mg/kg/injection, schedule: Q01DX009 (ip), vehicle: saline): 10 of 10

COc1ccc(/C=C/c2nc3ccccc3nc2/C=C/c2ccc(OC)c(OC)c2)cc1OC
survivor count [9]: 10 of 10 | survivor count [10]: 9 of 10 | survivor count [3]: 8 of 10

c1ccc([P+](C[P+](c2ccccc2)(c2ccccc2)c2ccccc2)(c2ccccc2)c2ccccc2)cc1
survivor count (dose: 3.0 mg/kg/injection, schedule: Q01DX009 (ip), vehicle: saline): 9 of 10 | survivor count (dose: 6.0 mg/kg/injection, schedule: Q01DX009 (ip), vehicle: saline): 10 of 10 | survivor count (dose: 12.0 mg/kg/injection, schedule: Q01DX009 (ip), vehicle: saline): 2 of 10

Oc1c(Br)cc(Br)cc1/C=N/N=C/c1cc(Br)cc(Br)c1O
survivor count [4]: 10 of 10

c1ccc(C[n+]2ccc3ccccc3c2)cc1
T/C (dose: 12.5 mg/kg/injection, schedule: Q01DX009 (ip), vehicle: saline): 126 % of control | survivor count [7]: 5 of 6 and 6 of 6

CC(C)C(NC(=O)c1ccccc1)C(=O)O (stereo unspecified)
survivor count (dose: 100.0 mg/kg/injection, schedule: Q04DX003 (ip), vehicle: Klucel (hydroxypropylcellulose) (HPC)): 9 of 10 | survivor count [8]: 10 of 10 | survivor count (dose: 200.0 mg/kg/injection, schedule: Q04DX003 (ip), vehicle: Klucel (hydroxypropylcellulose) (HPC)): 9 of 10 | survivor count [4]: 10 of 10 | survivor count [11]: 9 of 10 | survivor count [6]: 10 of 10

NC(=S)SCCC(=O)O
survivor count [4]: 6 of 10

COC(=O)c1ccc(=O)c2nc3/c(=C/O)c(O)cc(=O)c3[nH]c12
survivor count (dose: 75.0 micrograms/kg/injection, schedule: Q04DX003 (ip), vehicle: saline with Tween-80): 10 of 10 | survivor count (dose: 150.0 micrograms/kg/injection, schedule: Q04DX003 (ip), vehicle: saline with Tween-80): 10 of 10 | survivor count (dose: 300.0 micrograms/kg/injection, schedule: Q04DX003 (ip), vehicle: saline with Tween-80): 10 of 10
